PubChem BioAssay AID1259308 – NCATS, 2017
Purpose: 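Knock-downs that increase output of a recombinant reporter protein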 (primary screen). System: human HEK293 embryonic kidney cells stably expressing firefly luciferase (HEK-CMV-Luc2-Hygro). Reagents: single siRNA against human genes, 0.8 pmol siRNA per well. Duration: 72 h. Detection: 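Luciferase light (ONE-Glo) measured on one replicate plate set and viability (CellTiter-Glo) on the other, scaled to a negative control siRNA, with robust z-scores and luciferase per cell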. Reading the numbers: total luciferase, z-score and total luciferase, % of control: higher = more reporter protein produced. Call rule: 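Active when the median/MAD z-score for overall luciferase is greater than 3; a gene was taken forward for validation with new siRNAs if at least two of its three siRNAs passed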. Meaning of the calls: active = raised luciferase; inactive = no rise.
The whole screen tested about 59,000 reagents; below is an unselected part. In the full data, about 1,510 (2.6%) are marked active. 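Calls use total luciferase alone and ignore viability, so some active siRNAs may act by altering cell number.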 The numbers tell different reagents against one gene apart. Not all columns of the deposit are shown.

After knock-down of DDX59 (DEAD-box helicase 59) #1, the screen gave total luciferase, z-score 0.0343; total luciferase, % of control 82.6; inactive.
Silencing of DDX59 (DEAD-box helicase 59) #2 resulted in: total luciferase, z-score -0.0441; total luciferase, % of control 81; inactive.
After knock-down of DDX59 (DEAD-box helicase 59) #3, the record shows total luciferase, z-score 1.08; total luciferase, % of control 103; inactive.
With knock-down of TRAIP (TRAF interacting protein) #1 the results were total luciferase, z-score -0.118; total luciferase, % of control 79.5; inactive.
After knock-down of TRAIP (TRAF interacting protein) #2, the screen gave total luciferase, z-score -0.266; total luciferase, % of control 76.6; inactive.
For TRAIP (TRAF interacting protein) #3, the entry reads total luciferase, z-score -0.104; total luciferase, % of control 79.8; inactive.
With knock-down of PHPT1 (phosphohistidine phosphatase 1) #1, the record shows total luciferase, z-score 0.841; total luciferase, % of control 98.6; inactive.
After knock-down of PHPT1 (phosphohistidine phosphatase 1) #2, the screen gave total luciferase, z-score -1.86; total luciferase, % of control 44.8; inactive.
Against PHPT1 (phosphohistidine phosphatase 1) #3, the entry reads total luciferase, z-score 0.268; total luciferase, % of control 87.2; inactive.
RPL19 (ribosomal protein L19) #1 gave total luciferase, z-score -2.55; total luciferase, % of control 31.2; inactive.
Against RPL19 (ribosomal protein L19) #2 the deposit lists total luciferase, z-score -2.83; total luciferase, % of control 25.5; inactive.
After knock-down of RPL19 (ribosomal protein L19) #3, the screen gave total luciferase, z-score -1.93; total luciferase, % of control 43.6; inactive.
After knock-down of LONRF1 (LON peptidase N-terminal domain and ring finger 1) #1 the results were total luciferase, z-score 0.767; total luciferase, % of control 97.2; inactive.
With knock-down of LONRF1 (LON peptidase N-terminal domain and ring finger 1) #2, the screen gave total luciferase, z-score -0.387; total luciferase, % of control 74.2; inactive.
Depletion of LONRF1 (LON peptidase N-terminal domain and ring finger 1) #3 came out at: total luciferase, z-score -0.33; total luciferase, % of control 75.3; inactive.
After knock-down of TMED9 (transmembrane p24 trafficking protein 9) #1 the results were total luciferase, z-score -1.36; total luciferase, % of control 54.8; inactive.
TMED9 (transmembrane p24 trafficking protein 9) #2 scored total luciferase, z-score -0.0343; total luciferase, % of control 81.2; inactive.
TMED9 (transmembrane p24 trafficking protein 9) #3 scored total luciferase, z-score 2.36; total luciferase, % of control 129; inactive.
Against LIN37 (lin-37 DREAM MuvB core complex component) #1, the entry reads total luciferase, z-score -0.698; total luciferase, % of control 68; inactive.
LIN37 (lin-37 DREAM MuvB core complex component) #2 showed total luciferase, z-score 0.981; total luciferase, % of control 101; inactive.
Against LIN37 (lin-37 DREAM MuvB core complex component) #3 the deposit lists total luciferase, z-score 2.16; total luciferase, % of control 125; inactive.
GRN (granulin precursor) #1 scored total luciferase, z-score 0.0984; total luciferase, % of control 83.8; inactive.
Knock-down of GRN (granulin precursor) #2 resulted in: total luciferase, z-score -0.919; total luciferase, % of control 63.6; inactive.
With knock-down of GRN (granulin precursor) #3, the record shows total luciferase, z-score -1.95; total luciferase, % of control 43.1; inactive.
Depletion of ICE2 (interactor of little elongation complex ELL subunit 2) #1 resulted in: total luciferase, z-score 1.15; total luciferase, % of control 105; inactive.
With knock-down of ICE2 (interactor of little elongation complex ELL subunit 2) #2 the results were total luciferase, z-score 0.856; total luciferase, % of control 98.9; inactive.
ICE2 (interactor of little elongation complex ELL subunit 2) #3 showed total luciferase, z-score -0.454; total luciferase, % of control 72.9; inactive.
With knock-down of CNOT7 (CCR4-NOT transcription complex subunit 7) #1, the screen gave total luciferase, z-score 0.828; total luciferase, % of control 98.4; inactive.
After knock-down of CNOT7 (CCR4-NOT transcription complex subunit 7) #2, the screen gave total luciferase, z-score 0.564; total luciferase, % of control 93.1; inactive.
Against CNOT7 (CCR4-NOT transcription complex subunit 7) #3, the values are total luciferase, z-score 0.362; total luciferase, % of control 89.1; inactive.
With knock-down of NUDC (nuclear distribution C, dynein complex regulator) #1, the record shows total luciferase, z-score -0.671; total luciferase, % of control 68.5; inactive.
For NUDC (nuclear distribution C, dynein complex regulator) #2, the values are total luciferase, z-score 1.2; total luciferase, % of control 106; inactive.
NUDC (nuclear distribution C, dynein complex regulator) #3 gave total luciferase, z-score -1.5; total luciferase, % of control 52; inactive.

Ordered by “total luciferase, z-score” (lowest first): 2 of the entries above.
TRAIP (TRAF interacting protein) #1: total luciferase, z-score = -0.118; total luciferase, % of control = 79.5; call = inactive
DDX59 (DEAD-box helicase 59) #3: total luciferase, z-score = 1.08; total luciferase, % of control = 103; call = inactive
